Values quoted from earlier work as cited in patent publication US20070292421A1, “Method for treating preeclampsia” (priority 2005, published 2007).
For at least one compound, name, drawing or mass did not settle the structure.

Test system: women with HELLP syndrome
Conditions: in vivo

## C[C@@H]1C[C@H]2[C@@H]3CCC4=CC(=O)C=C[C@]4(C)[C@@]3(F)[C@@H](O)C[C@]2(C)[C@@]1(O)C(=O)CO [dexamethasone]
  primary outcomes of maternal mortality and morbidity, perinatal mortality or morbidity: no significant differences
